{"source": "PubChem BioAssay AID1259254, NCATS | 2017", "screen": "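Gene knock-downs that lead to re-replication, shown by excess G2 DNA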 (primary screen)", "cell system": "human HCT116 colorectal cancer cells", "reagents": "single siRNA against human genes", "timing": "3 days", "read-out": "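Nuclei stained with Hoechst and imaged; cell-cycle phase assigned by DNA content; G2 share scaled per plate, non-targeting siRNA 0%, GMNN siRNA 100%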", "reading the numbers": "G2 robust z-score: higher = more G2 cells, more excess DNA replication", "call rule": "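An siRNA counts as active if its G2 robust z-score lies at least 5 MADs above the screen median; here such calls match roughly 38% of GMNN control or more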", "note": "In all, the deposit lists about 59,000 reagents; shown is an unselected part. Of all reagents, about 1,550 (2.6%) are marked active. 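G2 share is only a proxy for re-replication; each gene was hit by three separate siRNAs, and active genes were retested.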 The numbers tell different reagents against one gene apart. Further read-outs or replicates are left out here. Not stated in the record: the amount of reagent."}
{"gene": "IPO11 (GeneID 51194)", "reagent no.": 1, "G2 robust z-score": -0.948, "Outcome": "inactive"}
{"gene": "IPO11 (GeneID 51194)", "reagent no.": 2, "G2 robust z-score": -0.6, "Outcome": "inactive"}
{"gene": "IPO11 (GeneID 51194)", "reagent no.": 3, "G2 robust z-score": 0.981, "Outcome": "inactive"}
{"gene": "ING4 (GeneID 51147)", "reagent no.": 1, "G2 robust z-score": 0.267, "Outcome": "inactive"}
{"gene": "ING4 (GeneID 51147)", "reagent no.": 2, "G2 robust z-score": 0.977, "Outcome": "inactive"}
{"gene": "ING4 (GeneID 51147)", "reagent no.": 3, "G2 robust z-score": -0.416, "Outcome": "inactive"}
{"gene": "NPIPB2 (GeneID 729978)", "reagent no.": 1, "G2 robust z-score": -0.538, "Outcome": "inactive"}
{"gene": "NPIPB2 (GeneID 729978)", "reagent no.": 2, "G2 robust z-score": -0.674, "Outcome": "inactive"}
{"gene": "NPIPB2 (GeneID 729978)", "reagent no.": 3, "G2 robust z-score": 1.6, "Outcome": "inactive"}
{"gene": "C3orf70 (GeneID 285382)", "reagent no.": 1, "G2 robust z-score": 10.1, "Outcome": "active"}
{"gene": "C3orf70 (GeneID 285382)", "reagent no.": 2, "G2 robust z-score": -0.0412, "Outcome": "inactive"}
{"gene": "C3orf70 (GeneID 285382)", "reagent no.": 3, "G2 robust z-score": 2.97, "Outcome": "inactive"}

2 entries from above, sorted by “G2 robust z-score”, lowest first:
{"gene": "ING4 (GeneID 51147)", "reagent no.": 1, "G2 robust z-score": 0.267, "Outcome": "inactive"}
{"gene": "ING4 (GeneID 51147)", "reagent no.": 2, "G2 robust z-score": 0.977, "Outcome": "inactive"}
